Measurements reported in PubChem BioAssay AID1259254 (NCATS, 2017)
This is one part, drawn at random, of about 59,000 deposited reagents. In the full data, about 1,550 (2.6%) got an active call. 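G2 share is only a proxy for re-replication; each gene was hit by three separate siRNAs, and active genes were retested.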 Unmarked entries are inactive. Reagents against one gene are numbered here. Not all columns of the deposit are shown. Not stated in the record: the amount of reagent.

Purpose: 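Gene knock-downs that lead to re-replication, shown by excess G2 DNA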 (primary screen)
System: human HCT116 colorectal cancer cells
Knock-down reagent: single siRNA against human genes
Timing: 3 days
Detection: 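Nuclei stained with Hoechst and imaged; cell-cycle phase assigned by DNA content; G2 share scaled per plate, non-targeting siRNA 0%, GMNN siRNA 100%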
Scale: G2 robust z-score: higher = more G2 cells, more excess DNA replication
Hit rule: 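Active siRNAs have a G2 robust z of 5 or more median absolute deviations over the median, which in these data means about 38% or higher of GMNN control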

For TTI2 #1, what does the deposit list?
G2 robust z-score: 1.04

What is on record for TTI2 #2?
G2 robust z-score: -0.518

With TTI2 #3, what does the deposit list?
G2 robust z-score: -0.951

Which result is listed for RPSAP12 #1?
G2 robust z-score: 8.57 (active)

With RPSAP12 #2, what does the deposit list?
G2 robust z-score: 7.21 (active)

How did the screen score RPSAP12 #3?
G2 robust z-score: 2.62

Which result is listed for GAMT #1?
G2 robust z-score: -1.13

For GAMT #2, what does the deposit list?
G2 robust z-score: -0.573

What did the screen give for GAMT #3?
G2 robust z-score: 0.629

What is on record for CDIPT #1?
G2 robust z-score: -0.959

For CDIPT #2, what does the deposit list?
G2 robust z-score: -1.11

Which result is listed for CDIPT #3?
G2 robust z-score: -1.3

Records listed so far with an active call, once more:
RPSAP12 #1 — G2 robust z-score = 8.57 (active)
RPSAP12 #2 — G2 robust z-score = 7.21 (active)

The listing continues.
How did the screen score TM4SF1 #1?
G2 robust z-score: -0.337

For TM4SF1 #2, what does the deposit list?
G2 robust z-score: -0.325

For TM4SF1 #3, how do the results read?
G2 robust z-score: 0.238

For CCR3 #1, how do the results read?
G2 robust z-score: -1.26

What did the screen give for CCR3 #2?
G2 robust z-score: -0.356

With CCR3 #3, what does the deposit list?
G2 robust z-score: 0.831

For TMEM38B #1, what was measured?
G2 robust z-score: -0.311

Which result is listed for TMEM38B #2?
G2 robust z-score: 0.353

For TMEM38B #3, how do the results read?
G2 robust z-score: -0.58

For CCDC126 #1, how do the results read?
G2 robust z-score: -0.318

What is on record for CCDC126 #2?
G2 robust z-score: -0.486

How did the screen score CCDC126 #3?
G2 robust z-score: -0.052
